Measured values as given in US20070112183A1, “Chitin oligomer composition and/or chitosan oligomer composition and processes for preparation thereof” (RESEARCH INSTITUTE FOR PRODUCTION DEVELOPMENT, priority 2003, published 2007).
Some of these results come from one statement about several compounds together.

Assay: Concentration of endotoxin, TOXINOMETER ET-2000 with LIMRUS ES-II Single Test Wako
Details: Limulus reagent test

For `CC(=O)N[C@H]1C(O)O[C@H](CO)[C@@H](O)[C@@H]1O` (stereo partly shown) [Example 32, N-acetyl glucosamine], the concentration of endotoxin was “lower than the detection limit”.
